The other results are listed elsewhere or left out.
compound: Cc1ccc(NC(=O)c2ccc(CN3CC[C@H](N(C)C)C3)c(C(F)(F)F)c2)cc1Nc1nccc(-c2cncnc2)n1 [bafetinib]; experiment: log2 fold change, soluble protein after heating vs DMSO (PISA); higher = thermal stabilisation; K562 cells, 10 uM, 30 min; active = over 0.2 and 3.5 SD of the protein, either way, in both replicates (recomputed)
How it was run: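 For each measurement, 10 μM compound was applied for 30 min to K562 cells at 2×10^6 cells/mL. Aliquots were heated for 3 min across 48°C-58°C, pooled, and extracted in PBS with 0.5% NP-40 at 4°C; the supernatant after 21,000xg for 90 min was soluble protein. This was quantified by TMTpro 16plex LC-MS/MS with channel sums equalised, and thermal stability was reported relative to control samples from duplicates, on a log2 fold-change scale.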

By UniProt entry, the sequences of proteins in these tests, tags left out. Where a name states a change or a piece, a line headed by the entry shows the natural chain unless it says otherwise.
UniProt O60504: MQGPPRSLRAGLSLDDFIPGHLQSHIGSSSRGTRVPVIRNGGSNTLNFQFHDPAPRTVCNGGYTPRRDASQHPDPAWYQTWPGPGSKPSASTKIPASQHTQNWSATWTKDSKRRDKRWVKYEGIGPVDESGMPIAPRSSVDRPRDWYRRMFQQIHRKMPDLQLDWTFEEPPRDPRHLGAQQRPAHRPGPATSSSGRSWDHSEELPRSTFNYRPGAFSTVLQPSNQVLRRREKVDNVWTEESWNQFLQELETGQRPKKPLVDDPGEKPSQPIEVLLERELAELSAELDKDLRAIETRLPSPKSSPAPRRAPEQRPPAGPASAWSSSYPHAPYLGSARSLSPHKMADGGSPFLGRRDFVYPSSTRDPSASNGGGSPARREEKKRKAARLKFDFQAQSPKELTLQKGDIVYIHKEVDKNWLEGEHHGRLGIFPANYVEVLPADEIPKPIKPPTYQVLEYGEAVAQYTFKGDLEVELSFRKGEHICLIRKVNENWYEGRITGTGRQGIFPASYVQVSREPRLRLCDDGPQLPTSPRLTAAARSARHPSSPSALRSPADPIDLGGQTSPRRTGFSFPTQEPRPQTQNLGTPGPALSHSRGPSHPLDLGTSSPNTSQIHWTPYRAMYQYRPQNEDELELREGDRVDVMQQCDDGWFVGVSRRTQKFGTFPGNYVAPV
UniProt Q96BD0: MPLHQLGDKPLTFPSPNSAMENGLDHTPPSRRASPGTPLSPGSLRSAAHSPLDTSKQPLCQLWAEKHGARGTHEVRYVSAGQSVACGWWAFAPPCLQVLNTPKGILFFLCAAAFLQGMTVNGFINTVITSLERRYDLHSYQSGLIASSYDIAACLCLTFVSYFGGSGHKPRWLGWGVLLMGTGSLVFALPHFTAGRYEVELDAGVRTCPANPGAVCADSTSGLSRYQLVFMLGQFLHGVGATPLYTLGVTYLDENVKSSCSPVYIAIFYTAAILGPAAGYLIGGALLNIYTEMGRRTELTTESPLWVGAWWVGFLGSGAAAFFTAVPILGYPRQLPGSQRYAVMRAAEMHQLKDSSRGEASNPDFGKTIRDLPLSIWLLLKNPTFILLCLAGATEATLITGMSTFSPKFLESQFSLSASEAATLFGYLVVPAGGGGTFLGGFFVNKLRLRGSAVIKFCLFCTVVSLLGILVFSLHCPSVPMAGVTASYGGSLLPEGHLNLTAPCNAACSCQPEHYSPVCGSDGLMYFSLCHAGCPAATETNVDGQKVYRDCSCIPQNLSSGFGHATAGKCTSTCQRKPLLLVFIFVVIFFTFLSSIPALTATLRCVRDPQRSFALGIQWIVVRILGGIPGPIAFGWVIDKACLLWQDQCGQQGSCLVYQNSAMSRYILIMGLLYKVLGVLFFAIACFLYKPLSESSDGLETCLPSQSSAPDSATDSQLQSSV
UniProt B2RUZ4: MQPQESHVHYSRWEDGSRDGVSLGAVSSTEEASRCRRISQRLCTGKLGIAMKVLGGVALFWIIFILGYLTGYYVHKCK
UniProt Q00796: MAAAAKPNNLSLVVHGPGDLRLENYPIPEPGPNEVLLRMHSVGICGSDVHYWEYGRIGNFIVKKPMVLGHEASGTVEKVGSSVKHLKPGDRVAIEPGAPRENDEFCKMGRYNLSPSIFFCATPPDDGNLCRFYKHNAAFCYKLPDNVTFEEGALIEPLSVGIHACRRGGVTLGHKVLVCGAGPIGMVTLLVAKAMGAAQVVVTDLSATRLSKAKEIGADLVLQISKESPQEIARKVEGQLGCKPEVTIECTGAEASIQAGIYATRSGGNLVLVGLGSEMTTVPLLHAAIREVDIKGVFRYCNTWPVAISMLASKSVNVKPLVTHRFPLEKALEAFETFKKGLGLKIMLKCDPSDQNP
UniProt O75391: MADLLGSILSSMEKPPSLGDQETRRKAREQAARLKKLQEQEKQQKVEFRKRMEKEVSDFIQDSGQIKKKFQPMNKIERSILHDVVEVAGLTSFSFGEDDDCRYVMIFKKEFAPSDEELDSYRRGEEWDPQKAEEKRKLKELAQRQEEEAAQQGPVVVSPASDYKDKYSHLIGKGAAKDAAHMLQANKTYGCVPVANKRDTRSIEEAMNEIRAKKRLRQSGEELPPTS
UniProt Q9H4I9: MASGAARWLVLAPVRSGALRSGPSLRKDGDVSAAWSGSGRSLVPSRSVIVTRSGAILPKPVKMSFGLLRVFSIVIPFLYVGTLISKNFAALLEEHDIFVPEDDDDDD
UniProt Q8N5G0: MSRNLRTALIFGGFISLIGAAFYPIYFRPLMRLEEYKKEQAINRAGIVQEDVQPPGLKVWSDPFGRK
UniProt P51532, whole entry, looked up: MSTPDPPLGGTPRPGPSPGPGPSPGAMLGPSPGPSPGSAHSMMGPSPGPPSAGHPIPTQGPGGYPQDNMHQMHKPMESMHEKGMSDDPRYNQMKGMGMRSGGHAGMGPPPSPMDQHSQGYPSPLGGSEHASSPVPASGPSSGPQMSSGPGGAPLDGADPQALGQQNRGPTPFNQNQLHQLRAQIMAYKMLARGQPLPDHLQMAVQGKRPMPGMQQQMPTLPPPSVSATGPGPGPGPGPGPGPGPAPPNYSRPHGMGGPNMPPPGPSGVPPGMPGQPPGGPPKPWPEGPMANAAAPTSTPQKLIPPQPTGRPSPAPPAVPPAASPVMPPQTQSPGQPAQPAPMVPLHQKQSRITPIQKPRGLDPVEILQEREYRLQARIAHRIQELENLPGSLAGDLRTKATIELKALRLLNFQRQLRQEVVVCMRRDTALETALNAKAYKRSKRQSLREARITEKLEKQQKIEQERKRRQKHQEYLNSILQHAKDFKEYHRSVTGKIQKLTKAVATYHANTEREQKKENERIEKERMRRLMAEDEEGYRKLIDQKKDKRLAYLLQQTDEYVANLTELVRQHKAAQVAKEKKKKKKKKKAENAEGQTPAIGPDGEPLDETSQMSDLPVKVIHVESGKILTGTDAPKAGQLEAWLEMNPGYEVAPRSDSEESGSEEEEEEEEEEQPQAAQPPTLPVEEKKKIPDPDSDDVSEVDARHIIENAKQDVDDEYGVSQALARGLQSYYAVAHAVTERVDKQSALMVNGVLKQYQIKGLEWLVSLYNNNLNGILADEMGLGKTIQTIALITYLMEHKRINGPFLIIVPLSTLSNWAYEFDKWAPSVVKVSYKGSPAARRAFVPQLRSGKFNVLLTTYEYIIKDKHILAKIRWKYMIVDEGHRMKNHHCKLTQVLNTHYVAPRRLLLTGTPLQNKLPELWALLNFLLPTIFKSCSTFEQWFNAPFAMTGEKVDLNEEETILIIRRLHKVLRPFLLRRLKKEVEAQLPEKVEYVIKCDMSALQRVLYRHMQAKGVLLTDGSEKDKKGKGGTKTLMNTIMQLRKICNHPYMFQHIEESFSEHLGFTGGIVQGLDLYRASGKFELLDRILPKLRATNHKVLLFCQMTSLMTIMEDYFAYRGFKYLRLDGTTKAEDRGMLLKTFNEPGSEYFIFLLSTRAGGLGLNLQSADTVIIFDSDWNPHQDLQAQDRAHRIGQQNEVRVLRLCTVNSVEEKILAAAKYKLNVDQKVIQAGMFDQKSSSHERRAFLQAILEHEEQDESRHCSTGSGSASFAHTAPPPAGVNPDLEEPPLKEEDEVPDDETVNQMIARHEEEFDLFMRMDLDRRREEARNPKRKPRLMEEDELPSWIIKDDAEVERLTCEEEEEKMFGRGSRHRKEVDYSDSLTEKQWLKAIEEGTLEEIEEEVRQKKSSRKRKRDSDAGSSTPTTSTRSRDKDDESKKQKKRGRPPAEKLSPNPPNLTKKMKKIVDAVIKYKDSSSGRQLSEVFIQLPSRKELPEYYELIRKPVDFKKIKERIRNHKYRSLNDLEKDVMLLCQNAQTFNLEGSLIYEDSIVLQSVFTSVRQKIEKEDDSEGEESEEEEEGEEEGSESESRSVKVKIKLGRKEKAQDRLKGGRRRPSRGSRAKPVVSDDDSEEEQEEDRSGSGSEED
UniProt P19634, whole entry, looked up: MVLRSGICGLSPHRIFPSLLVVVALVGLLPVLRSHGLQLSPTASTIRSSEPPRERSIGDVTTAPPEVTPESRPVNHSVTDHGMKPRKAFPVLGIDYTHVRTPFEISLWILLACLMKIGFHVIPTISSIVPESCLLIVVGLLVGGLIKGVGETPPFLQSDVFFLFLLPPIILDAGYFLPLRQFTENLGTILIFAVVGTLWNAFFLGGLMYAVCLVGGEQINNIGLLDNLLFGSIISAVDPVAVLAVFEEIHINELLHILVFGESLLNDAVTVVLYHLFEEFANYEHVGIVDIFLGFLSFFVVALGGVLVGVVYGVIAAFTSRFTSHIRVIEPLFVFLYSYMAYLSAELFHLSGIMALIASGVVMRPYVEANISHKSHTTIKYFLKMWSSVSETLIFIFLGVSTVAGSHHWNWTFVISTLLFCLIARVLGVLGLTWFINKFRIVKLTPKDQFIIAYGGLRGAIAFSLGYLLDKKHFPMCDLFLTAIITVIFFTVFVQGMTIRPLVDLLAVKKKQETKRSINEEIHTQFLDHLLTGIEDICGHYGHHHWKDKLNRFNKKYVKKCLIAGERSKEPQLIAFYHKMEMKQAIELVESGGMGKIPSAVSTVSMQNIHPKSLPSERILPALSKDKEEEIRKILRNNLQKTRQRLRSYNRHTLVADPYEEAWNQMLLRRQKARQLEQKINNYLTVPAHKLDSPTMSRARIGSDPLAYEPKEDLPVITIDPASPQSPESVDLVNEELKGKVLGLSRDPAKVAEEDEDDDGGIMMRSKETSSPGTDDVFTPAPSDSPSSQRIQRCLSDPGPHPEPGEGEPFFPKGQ
UniProt Q9NRG4: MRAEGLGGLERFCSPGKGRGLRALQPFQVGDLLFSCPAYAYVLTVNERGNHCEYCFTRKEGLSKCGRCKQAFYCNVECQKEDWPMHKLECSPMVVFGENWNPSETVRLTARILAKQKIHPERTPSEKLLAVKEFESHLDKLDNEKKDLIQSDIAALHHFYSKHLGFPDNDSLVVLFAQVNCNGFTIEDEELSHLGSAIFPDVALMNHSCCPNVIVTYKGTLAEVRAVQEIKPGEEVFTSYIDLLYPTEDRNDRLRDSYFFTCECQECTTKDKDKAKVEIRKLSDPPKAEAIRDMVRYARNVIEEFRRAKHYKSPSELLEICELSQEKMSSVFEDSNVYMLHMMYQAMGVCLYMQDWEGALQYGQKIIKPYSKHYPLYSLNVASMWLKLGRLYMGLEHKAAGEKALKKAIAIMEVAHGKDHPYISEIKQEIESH
UniProt O60641: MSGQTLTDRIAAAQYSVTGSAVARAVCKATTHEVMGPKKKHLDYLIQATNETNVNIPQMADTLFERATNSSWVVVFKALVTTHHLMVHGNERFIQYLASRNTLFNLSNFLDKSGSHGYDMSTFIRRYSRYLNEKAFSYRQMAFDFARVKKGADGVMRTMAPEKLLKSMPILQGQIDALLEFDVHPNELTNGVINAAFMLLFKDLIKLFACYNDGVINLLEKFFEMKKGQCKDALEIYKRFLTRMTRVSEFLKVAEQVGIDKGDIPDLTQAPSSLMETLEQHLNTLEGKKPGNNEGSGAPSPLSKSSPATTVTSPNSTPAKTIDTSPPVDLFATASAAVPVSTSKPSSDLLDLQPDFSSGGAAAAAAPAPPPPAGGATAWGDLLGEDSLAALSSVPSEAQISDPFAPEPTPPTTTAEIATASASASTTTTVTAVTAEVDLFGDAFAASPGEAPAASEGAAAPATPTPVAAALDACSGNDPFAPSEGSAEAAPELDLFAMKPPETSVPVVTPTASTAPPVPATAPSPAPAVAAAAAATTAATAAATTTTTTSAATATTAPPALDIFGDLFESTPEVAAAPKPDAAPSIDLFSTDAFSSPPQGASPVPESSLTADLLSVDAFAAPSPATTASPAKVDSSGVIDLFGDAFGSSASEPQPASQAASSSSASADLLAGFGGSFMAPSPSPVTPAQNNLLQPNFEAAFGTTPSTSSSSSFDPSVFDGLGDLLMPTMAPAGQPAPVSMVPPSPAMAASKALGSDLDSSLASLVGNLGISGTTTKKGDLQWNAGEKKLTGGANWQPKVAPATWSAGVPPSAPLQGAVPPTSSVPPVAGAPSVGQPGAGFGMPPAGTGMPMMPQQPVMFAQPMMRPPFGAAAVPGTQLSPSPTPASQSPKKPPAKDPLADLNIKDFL
UniProt Q9H0W8: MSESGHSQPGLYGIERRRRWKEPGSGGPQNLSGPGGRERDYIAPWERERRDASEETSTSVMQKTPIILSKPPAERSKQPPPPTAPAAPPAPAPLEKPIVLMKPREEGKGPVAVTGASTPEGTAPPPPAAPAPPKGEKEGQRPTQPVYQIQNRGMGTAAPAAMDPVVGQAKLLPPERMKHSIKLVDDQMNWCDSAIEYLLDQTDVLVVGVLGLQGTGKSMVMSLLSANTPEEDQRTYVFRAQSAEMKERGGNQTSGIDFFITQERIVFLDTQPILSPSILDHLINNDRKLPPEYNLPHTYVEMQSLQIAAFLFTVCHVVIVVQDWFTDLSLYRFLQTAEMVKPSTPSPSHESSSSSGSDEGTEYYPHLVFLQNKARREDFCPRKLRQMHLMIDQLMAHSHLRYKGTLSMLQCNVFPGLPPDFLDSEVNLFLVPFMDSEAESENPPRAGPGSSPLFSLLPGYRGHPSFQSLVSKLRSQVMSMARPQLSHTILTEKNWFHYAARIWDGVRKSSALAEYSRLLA

log2 fold change, inactive:
SORBS1 isoform 12 (UniProt Q9BX66) -0.065, SORBS3 (UniProt O60504) 0.045, SLCO4A1 (UniProt Q96BD0) -0.062, SON isoform 9 (UniProt P18583) 0.014, SMIM1 (UniProt B2RUZ4) -0.096, SMAP (UniProt O00193) 0.043, SORD (UniProt Q00796) -0.029, SPAG7 (UniProt O75391) -0.031, SMDT1 (UniProt Q9H4I9) -0.138, SMIM20 isoform 2 (UniProt Q8N5G0) -0.011, SMIM8 (UniProt Q96KF7) -0.009, SMG6 (UniProt Q86US8) -0.056, SMPD4 isoform 2 (UniProt Q9NXE4) -0.026, SNX8 (UniProt Q9Y5X2) -0.072, SMARCA4 (UniProt P51532) 0.149, SLC9A1 (UniProt P19634) -0.021, SNX12 isoform 1 (UniProt Q9UMY4) -0.067, SMYD2 (UniProt Q9NRG4) 0.018, SLK isoform 2 (UniProt Q9H2G2) -0.032, SNAP91 (UniProt O60641) -0.088, SLC7A6OS (UniProt Q96CW6) -0.062, SMG9 (UniProt Q9H0W8) 0.011

— the supplement of paper PMC10849652
